The target in data set [1] is protein tyrosine kinase 7 (PTK7) on HeLa cells (UniProt Q13308). The data set can be described thus: flow cytometry. The conditions noted are these: much stronger than 95-C cells, attributed to higher PTK7 expression, Working buffer 20 mM Tris-HCl, 100 mM NaCl, 2 mM MgCl2, pH 7.4, cell imaging 2 h at 4 C, flow cytometry buffer and temperature not given, protein on the cell surface, label: 3'-FAM, single-stranded DNA. In general terms: Flow cytometry measures light scatter and fluorescence of single cells or particles in a stream.

Chains of the proteins cited; added tags and fusions are not shown. Residues count along the entry.
UniProt Q13308, 31-1070: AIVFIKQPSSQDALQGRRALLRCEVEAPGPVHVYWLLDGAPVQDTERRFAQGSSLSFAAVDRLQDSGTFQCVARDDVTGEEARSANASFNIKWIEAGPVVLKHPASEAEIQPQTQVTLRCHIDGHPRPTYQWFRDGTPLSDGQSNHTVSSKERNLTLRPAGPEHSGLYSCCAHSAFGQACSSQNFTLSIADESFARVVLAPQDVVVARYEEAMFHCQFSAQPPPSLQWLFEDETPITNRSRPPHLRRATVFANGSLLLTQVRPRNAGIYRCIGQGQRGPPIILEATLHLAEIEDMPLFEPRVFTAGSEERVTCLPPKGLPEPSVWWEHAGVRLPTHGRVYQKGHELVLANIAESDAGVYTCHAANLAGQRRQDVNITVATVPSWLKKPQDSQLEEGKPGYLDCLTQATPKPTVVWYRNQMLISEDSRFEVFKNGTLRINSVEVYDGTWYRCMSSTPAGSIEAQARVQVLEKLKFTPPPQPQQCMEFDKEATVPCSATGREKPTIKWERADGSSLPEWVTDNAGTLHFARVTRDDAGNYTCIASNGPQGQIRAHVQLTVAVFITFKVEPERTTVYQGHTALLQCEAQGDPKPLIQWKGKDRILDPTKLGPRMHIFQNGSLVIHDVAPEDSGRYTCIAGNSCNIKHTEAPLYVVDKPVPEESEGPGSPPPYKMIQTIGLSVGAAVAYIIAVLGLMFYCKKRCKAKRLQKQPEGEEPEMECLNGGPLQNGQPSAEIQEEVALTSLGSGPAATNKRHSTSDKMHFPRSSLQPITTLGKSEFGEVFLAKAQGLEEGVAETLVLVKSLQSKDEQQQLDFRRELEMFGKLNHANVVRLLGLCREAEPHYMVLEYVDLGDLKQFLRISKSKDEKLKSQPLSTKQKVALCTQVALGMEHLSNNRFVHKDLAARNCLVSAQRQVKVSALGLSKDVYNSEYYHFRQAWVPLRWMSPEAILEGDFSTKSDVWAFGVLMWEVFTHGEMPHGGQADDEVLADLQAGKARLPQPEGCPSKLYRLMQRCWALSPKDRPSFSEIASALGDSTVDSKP

Data set [2] has the same target. The data set can be described thus: two-photon luminescence cell imaging. The conditions noted are these: GIAN-Sgc8, 4 C, 2 h, 95-C cells gave no positive signal, adsorbed on graphene-isolated Au nanocrystal (GIAN), Working buffer 20 mM Tris-HCl, 100 mM NaCl, 2 mM MgCl2, pH 7.4, cell imaging 2 h at 4 C, flow cytometry buffer and temperature not given, protein on the cell surface, single-stranded DNA.

Construct, isoform or probe ends are uncertain for at least one entry. Results from cells or extracts need not show a direct contact. At least one verdict rests on a figure or table, not on a statement of the authors.

In the case of “AAAAAAAAATCTAACTGCTGCGCCGCCGGGAAAATACTGTACGGTTAGA [Sgc8-FAM]”, in data set [1], the binding result is listed as “binds”. For “AAAAAAAAATCTAACTGCTGCGCCGCCGGGAAAATACTGTACGGTTAGA [Sgc8 (on GIAN)]”, in data set [2], the binding result is “binds”.

The values above are taken from publication PMC4151100.
